According to publication PMC4140647:
No constants are given. Whether binding was seen depends on the method and setting. Binding seen in cells or lysates may run through a third protein. A yes stands for co-enrichment or nearness to the bait. Other partners may have been found. For some of these results: A no says only that the protein was not detected with the bait. Where a sequence is shown, tags or fusion partners need not be part of it. Blank lines part the entries; values can stand above or below the binder they belong to.

What was measured:
[1] = target: T1, HEN2-GFP (Arabidopsis thaliana) (UniProt Q9ZVW2); assay: affinity purification with mass spectrometry; HEN2-GFP (hen2 background) extracted from flowers, held on anti-GFP magnetic microparticles (MACS), 150 mM NaCl; LC-MS/MS; duplicates crossed, proteins of mock IPs excluded
T1 sequence: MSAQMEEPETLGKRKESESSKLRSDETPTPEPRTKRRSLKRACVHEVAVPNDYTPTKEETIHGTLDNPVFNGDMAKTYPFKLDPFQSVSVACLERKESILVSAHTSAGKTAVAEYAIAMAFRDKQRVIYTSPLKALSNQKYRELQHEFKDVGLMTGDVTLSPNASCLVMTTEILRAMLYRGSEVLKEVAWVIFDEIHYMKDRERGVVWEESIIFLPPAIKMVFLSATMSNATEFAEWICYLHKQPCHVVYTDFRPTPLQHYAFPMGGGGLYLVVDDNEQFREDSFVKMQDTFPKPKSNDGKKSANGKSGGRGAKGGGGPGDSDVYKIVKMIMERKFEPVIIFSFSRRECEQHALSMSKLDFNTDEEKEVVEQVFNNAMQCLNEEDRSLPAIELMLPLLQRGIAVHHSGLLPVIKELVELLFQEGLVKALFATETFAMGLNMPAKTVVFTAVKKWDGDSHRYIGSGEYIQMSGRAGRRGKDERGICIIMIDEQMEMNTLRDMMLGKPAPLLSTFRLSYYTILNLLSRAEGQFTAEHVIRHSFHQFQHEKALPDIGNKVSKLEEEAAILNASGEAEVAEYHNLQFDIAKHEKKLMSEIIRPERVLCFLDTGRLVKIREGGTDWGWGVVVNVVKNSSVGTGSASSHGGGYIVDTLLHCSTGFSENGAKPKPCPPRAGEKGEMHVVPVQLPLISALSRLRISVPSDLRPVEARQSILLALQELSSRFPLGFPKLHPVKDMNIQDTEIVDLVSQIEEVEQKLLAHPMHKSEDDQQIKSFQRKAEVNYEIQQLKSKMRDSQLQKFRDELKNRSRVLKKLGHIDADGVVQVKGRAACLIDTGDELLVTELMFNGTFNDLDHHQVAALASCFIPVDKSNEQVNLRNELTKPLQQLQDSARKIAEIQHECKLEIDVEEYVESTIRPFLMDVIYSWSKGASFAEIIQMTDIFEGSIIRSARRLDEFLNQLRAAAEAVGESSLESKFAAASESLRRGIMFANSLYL

[2] = target: T2, GFP-tagged RRP41 (Arabidopsis thaliana) (UniProt Q9SP08); assay: affinity purification with mass spectrometry; RRP41-myc or RRP41-GFP extracted from flowers of stable Arabidopsis transformants, held on magnetic microparticles coated with monoclonal myc or GFP antibodies (MACS, Miltenyi), SDS omitted from washing buffers; nano LC-MS/MS; three biological repeats crossed, proteins of mock IPs excluded
T2 sequence: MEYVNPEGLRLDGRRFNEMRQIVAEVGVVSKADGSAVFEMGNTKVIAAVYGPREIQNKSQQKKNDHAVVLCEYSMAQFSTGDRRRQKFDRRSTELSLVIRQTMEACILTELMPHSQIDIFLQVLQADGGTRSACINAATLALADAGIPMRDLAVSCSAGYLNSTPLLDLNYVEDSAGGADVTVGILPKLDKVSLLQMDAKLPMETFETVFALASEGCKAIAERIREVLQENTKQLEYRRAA

[3] = target: T3, myc-tagged RRP41 (Arabidopsis thaliana) (UniProt Q9SP08); assay: as above
T3 sequence: T2 sequence

[4] = target: T1, HEN2-GFP (Arabidopsis thaliana); assay: affinity purification with mass spectrometry; HEN2-GFP (hen2 background) extracted from flowers, held on anti-GFP magnetic microparticles (MACS), 50 mM NaCl; LC-MS/MS; duplicates crossed, proteins of mock IPs excluded

B2: HEN2 (protein, UniProt Q9ZVW2 1-995)
chain: T1 sequence
binding [2]: binds | binding [3]: binds

B3: AtMTR4 (protein, UniProt Q9XIF2 1-988)
chain: MGSVKRKSVEESSDSAPPQKVQREDDSTQIINEELVGCVHDVSFPENYVPLAPSVHNKPPAKDFPFTLDSFQSEAIKCLDNGESVMVSAHTSAGKTVVASYAIAMSLKENQRVIYTSPIKALSNQKYRDFKEEFSDVGLMTGDVTIDPNASCLVMTTEILRSMQYKGSEIMREVAWIIFDEVHYMRDSERGVVWEESIVMAPKNSRFVFLSATVPNAKEFADWVAKVHQQPCHIVYTDYRPTPLQHYVFPAGGNGLYLVVDEKSKFHEDSFQKSLNALVPTNESDKKRDNGKFQKGLVIGKLGEESDIFKLVKMIIQRQYDPVILFSFSKKECEALAMQMSKMVLNSDDEKDAVETIFASAIDMLSDDDKKLPQVSNILPILKRGIGVHHSGLLPILKEVIEILFQEGLIKCLFATETFSIGLNMPAKTVVFTNVRKFDGDKFRWLSSGEYIQMSGRAGRRGIDKRGICILMVDEKMEPAVAKSMLKGSADSLNSAFHLSYNMLLNQLRCEEGDPENLLRNSFFQFQADRAIPDLEKQIKSLEEERDSLVIEEEESLKNYYNLILQYKSLKKDIREIVFTPKYCLPFLLPNRAVCLDCTNDDEEPQSFSIEDQDTWGVIMKFNKVKSLSEDDDSRRPEDANYTVDVLTRCMVSKDGVGKKKVKAVPIKERGEPVVVTVPLSQIKSLSSAIMNIPKDLVPLEARENALKKVSELLSRHPDGIPLDPEVDMKIKSSSYKKTVRRLEALENLFEKHKIAKSPLITEKLKVLQMKEELIAKIKSLKKTVRSSTALAFKDELKARKRVLRRLGYITSDNVVELKGKVACEISSAEELTLTELMFSGIFKDAKVEELVSLLSCFVWRERLPDAAKPREELDLLFIQLQDTARRVAEVQLDCKVEIDVESFVQSFRPDIMEAVYAWAKGSKFYEVMEIARVFEGSLIRAIRRMEEVLQQLIVAAKSIGETQLEAKLEEAVSKIKRDIVFAASLYL
binding [2]: binds | binding [3]: binds

Other lines, results leading:

binding [1]: no binding (only 150 mM NaCl) | binding [2]: binds | binding [3]: binds | binding [4]: binds
B1: RRP45A (protein, UniProt Q9LDM2 1-307)
chain: MEGRLNNMWRLTVNESKFVESALQSELRVDGRGLYDYRKLTIKFGKEYGSSQVQLGQTHVMAFVTAQLVQPYKDRPSEGSFSIFTEFSPMADPSFEPGHPGESAVELGRIIDRALRESRAVDTESLCVLAGKLVWSVRIDLHILDNGGNLVDAANVAALAALMTFRRPDCTVGGDNSQDVIIHPPEEREPLPLIIHHLPIAFTFGFFNKGSILVMDPTYVEEAVMCGRMTVTVNANGDICAIQKPGEEGVNQSVILHCLRLASSRASATTKIIRDAVEAYNRERSSQKVKRHHTLAKSEVLGPIVVV

binding [2]: binds | binding [3]: binds
B4: RRP44/DIS3 (enzyme, UniProt Q9SHL7 1-933)
chain: MLQSKVFNKKTRGGRIQKQVREVYLRDDIYCGAFSCKSCDSSAARLSSSKIIVVDTNVVLHQIDLLENKAIDTVVVLSVVLDEVKNRNRSVYNRIRLLCSNPARQFYVFSNHVHKDTYVQAMEKESANDHNDRAIRVATLWYQKHLGDTSQVLLVTNDRENKRKATEEGISAETIEAYVKSLGQPELLDLLAQPTNEDITMEDADDSRPSKRKLIYQEHKPMSEITAGLHRGIYHQGKLRVNRFNPYEAYVGSESIGEEIIIYGRSNMNRAFDGDIVAVELLPRDQWQDEKALSIAEEDDEEDDTVHLAPDNVDDAPRTSNLSHETSGDKNAAPVRPSGRVVGVIRRNWHSYCGSLEPMSLPAGSGGTAHALFVSKDRRIPKIRINTRQLQNLLDMRIVVAVDSWDRQSRYPSGHYVRPIGKIGDKETETEVVLIENDVDYSPFSSQVLACLPPLPWSVSSEDVSNPVRQDLRHLLVFSVDPPGCKDIDDALHCTSLPNGNFELGVHIADVTNFVHPGTPLDDEASKRGTSVYLVERRIDMLPKPLTEDICSLRADVERLAFSVIWEMSPDAEIISTRFTKSIIKSSAALSYIEAQARMDDSRLTDSLTTDLRNMNTLAKIMRQRRIDRGALTLASAEVKFDIDPENHDPLNIGMYQILEANQMVEEFMLAANVSVAGQILKLFPSCSLLRRHPTPTREMLEPLLRTAAAIGLTLDVSSSKALADSLDRAVGEDPYFNKLIRILATRCMTQAVYFCSGDLSPPEYHHYGLAAPLYTHFTSPIRRYADVFVHRLLAASLGIYKLPTVFQDRPQLTSVADNLNYRHRNAQMAGRASVELYVLIYFRTRPTDEEARVVKIRSNGFIVFVPKYGIEGPVYLTGKGEKGAGDWYVDEEKQKIVKMDGSLSYSVLQTVKIHMEVVEPQPNRPKLQLTLL
